Paper PMC10846153
For at least one entry, the source does not settle the construct or the ends of the probe. The comparison behind a weaker result is the experiment's own reference, which may not be listed here. Protein sequences can lack the tags named with them.

Test system: T1, OxyR (Reut_A2805) (Cupriavidus pinatubonensis)
T1 sequence (looked up, limits assumed): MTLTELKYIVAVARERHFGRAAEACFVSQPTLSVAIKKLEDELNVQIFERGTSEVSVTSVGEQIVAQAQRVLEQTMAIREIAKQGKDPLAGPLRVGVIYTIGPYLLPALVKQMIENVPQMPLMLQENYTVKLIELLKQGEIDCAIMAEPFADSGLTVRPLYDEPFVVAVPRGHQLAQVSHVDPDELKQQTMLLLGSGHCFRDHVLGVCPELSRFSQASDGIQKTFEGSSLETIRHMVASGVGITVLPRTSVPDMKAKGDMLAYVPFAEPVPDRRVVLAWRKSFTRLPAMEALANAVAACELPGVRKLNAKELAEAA
Experiment: EMSA
Settings: DTT-treated OxyR, binding decreased as DTT increased; EMSA: 20 mM Tris pH 7.4, 4 mM MgCl2, 100 mM NaCl, 10% glycerol; 20 min at room temperature; 6% native PAGE with 5% glycerol in 0.5x TBE; recombinant protein; protein details: N-terminal His6 (pET28a); label: none (SYBR Green stain); probe letters rebuilt from the primers and the genome

“AAATGCATCGCTCTCAGAATACCCAAAAATGAGCAATTCGATGCCATCGACTTTCGCGTTTCTGGCAACTTTGCGCGAACTGTAGAAAATACCGGATTACAGGTATTGTCCTGTCCAAGTCGCACAGCGTAAATTTCGCCTGACTTCCGTTGCGCAACCAACAGAAACACAAAGATT (double strand) [PT6SS1]”: binds more weakly.
